Measurements published in patent US10918647B2, “Selective bromodomain inhibition of fungal Bdf1” (University of Southern California, priority 2016, dated 2021).
At least one structure is not confirmed: it was looked up by name or label, or the drawing left a doubt.

System: C. albicans
Test: Growth of C. albicans in vitro (liquid culture growth assay)
Assay type: cell-based
Excerpt: FIG. 8. CaBdf1 BDs are insensitive to human BET inhibitors. (a) HTRF inhibition assays performed on BD1 and BD2 from CaBdf1 and human Brd4 to evaluate the effects of four human BET inhibitors. Inhibition curves are shown as closed (BD1) and open (BD2) circles in green (Brd4) and magenta (Bdf1). IC50 values are summarized below each graph. (b) Thermal stability of the indicated BET BDs in the presence and absence of BET inhibitors determined by differential scanning fluorimetry. The thermal shift (ΔTm) for each inhibitor is indicated. Curves obtained in the presence (thick lines) or absence (thin lines) are plotted for CaBDF1 BD1 (solid magenta), CaBDF1 BD2 (dashed magenta) and human Brd4 (green). […] Experiments have been performed in the presence of doxycycline, which represses the pTetO-BDF1 allele.
FIG. 13. Identification of a CaBdf1-BD1 inhibitor that phenocopies BD1 inactivation. (a) Chemical structure of dibenzothiazepinone compound MS5. (b) HTRF assay showing that MS5 inhibits CaBdf1-BD1 preferentially over CaBdf1-BD2 and with weak selectivity compared to hBrd4-BD1. (c) ITC experiment showing binding of MS5 towards the indicated BD. (d) Effect of MS5 on the growth of C. albicans. The first allele is indicated below the graph, the second is pMET-BDF1 (top) orpTetO-BDF1 (bottom). […]

## CCOC(=O)Nc1cc(-c2ccc(C)c(NS(C)(=O)=O)c2)nn2c(C)nnc12 [bromosporine]
Even when Bdf1 bromodomains are deleted, in the presence of doxycycline (represses pTetO-BDF1 allele)
  effect on C. albicans growth: do not affect
In vitro
  effect on the growth of C. albicans in vitro: none of the BET inhibitors had any significant effect
